These are yes or no findings as the source states them, for the method shown. Some entries that bind do so weakly or less than the wild type.
Target: β-catenin prey fusion of plasmid pGAD424-βctn (UniProt P35222)
Assay: yeast two-hybrid, L40 strain, CPRG quantification (FIG. 7B)

By UniProt entry, the sequences of proteins in these tests, tags left out. Where a name states a change or a piece, a line headed by the entry shows the natural chain unless it says otherwise. Residues count along the entry.
UniProt P35222, residues 14-172: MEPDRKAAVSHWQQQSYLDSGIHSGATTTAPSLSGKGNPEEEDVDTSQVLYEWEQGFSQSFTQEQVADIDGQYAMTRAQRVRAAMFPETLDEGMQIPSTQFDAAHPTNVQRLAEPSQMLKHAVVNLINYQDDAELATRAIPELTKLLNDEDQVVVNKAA
UniProt P0A7C2: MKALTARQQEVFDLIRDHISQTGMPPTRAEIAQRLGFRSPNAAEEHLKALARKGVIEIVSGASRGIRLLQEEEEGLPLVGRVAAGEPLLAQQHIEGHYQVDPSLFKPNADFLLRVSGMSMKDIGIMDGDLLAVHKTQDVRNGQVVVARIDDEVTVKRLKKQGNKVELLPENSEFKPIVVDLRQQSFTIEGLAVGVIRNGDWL

For “human αE-catenin fused to the LexA DNA binding domain, bait plasmid pLexMG-αECTN (from UniProt P0A7C2 1-202; P35221 2-906)”, the binding was “binds”.

From US20030165506A1
